These results are taken from publication PMC8834516.

This test deals with T1, Transglutaminase-2 (mouse (endogenous in mouse brain)) (UniProt P21981).
T1 sequence: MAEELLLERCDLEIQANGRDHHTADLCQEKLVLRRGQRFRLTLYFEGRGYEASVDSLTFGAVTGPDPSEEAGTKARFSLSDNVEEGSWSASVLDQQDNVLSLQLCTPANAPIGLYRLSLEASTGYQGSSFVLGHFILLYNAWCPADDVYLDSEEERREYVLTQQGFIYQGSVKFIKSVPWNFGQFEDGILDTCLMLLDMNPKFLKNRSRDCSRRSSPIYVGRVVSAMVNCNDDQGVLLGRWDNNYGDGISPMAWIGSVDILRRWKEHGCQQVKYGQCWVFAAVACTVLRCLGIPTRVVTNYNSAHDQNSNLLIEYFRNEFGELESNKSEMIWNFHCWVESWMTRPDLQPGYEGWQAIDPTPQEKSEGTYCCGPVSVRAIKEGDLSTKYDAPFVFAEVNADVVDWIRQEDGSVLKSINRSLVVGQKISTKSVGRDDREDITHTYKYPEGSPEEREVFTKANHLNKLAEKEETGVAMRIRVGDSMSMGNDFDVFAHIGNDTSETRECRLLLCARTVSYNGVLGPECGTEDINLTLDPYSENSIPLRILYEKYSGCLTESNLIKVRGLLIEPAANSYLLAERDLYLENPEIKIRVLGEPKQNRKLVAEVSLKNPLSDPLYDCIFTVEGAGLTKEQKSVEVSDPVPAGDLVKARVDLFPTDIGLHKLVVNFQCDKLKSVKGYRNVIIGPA
Nature of the test: affinity purification with mass spectrometry; TG2 immunoprecipitated from total brain homogenates of 18-month-old WT and APP23 mice with anti-TG2 antibody IA12 crosslinked to protein A/G magnetic beads, 22 h at 4 °C; IP lysis buffer 25 mM Tris pH 7.4, 150 mM NaCl, 1 mM EDTA, 1% NP40, 5% glycerol; on-bead trypsin digest, SWATH MS; TG2−/− cohorts as background, z-test p ≤ 0.05, n = 5 per cohort.

These are yes or no findings as the source states them, for the method shown. In cells and extracts the contact can be indirect. These calls come from enrichment with a bait or labelling near it, and not all partners need be listed.

B1: Tenascin-R (protein, UniProt Q8BYI9 32-1358)
chain: RLEVTTERAQRQTVEEEGGASSYNTSSKEQPMVFNHVYNINVPLESLCSSGLEASAEQDMSAEDDTLAEYIGQTSDHESQVTFTHKINLPKKACPCASSSQVLQELLSRIEMLEREVSLLRDQCNTNCCQESAATGQLDYVPHCSGHGNFSFESCGCICNEGWFGKNCSEPYCPLGCSSRGVCVDGQCICDSEYSGDDCSELRCPTDCSSRGLCVDGECVCEEPYTGEDCRELRCPGDCSGKGQCANGTCLCQEGYAGEDCSQRRCLNACSGRGHCQEGLCICEEGYQGPDCSAVAPPEDLRVAGISDRSIELEWDGPMAVTEYVISYQPTALGGLQLQQRVPGDWSGVTIMELEPGLTYNISVYAVISNILSLPITAKVATHLSTPQGLQFKTITETTVEVQWEPFSFSFDGWEISFIPKNNEGGVIAQLPSDVTSFNQTGLKPGEEYIVNVVALKEQARSPPTSASVSTVIDGPTQILVRDVSDTVAFVEWTPPRAKVDFILLKYGLVGGEGGKTTFRLQPPLSQYSVQALRPGSRYEVSISAVRGTNESEASSTQFTTEIDAPKNLRVGSRTATSLDLEWDNSEAEAQEYKVVYSTLAGEQYHEVLVPKGIGPTTKTTLTDLVPGTEYGVGISAVMNSKQSIPATMNARTELDSPRDLMVTASSETSISLIWTKASGPIDHYRITFTPSSGISSEVTVPRDRTSYTLTDLEPGAEYIISITAERGRQQSLESTVDAFTGFRPISHLHFSHVTSSSVNITWSDPSPPADRLILNYSPRDKEEDMLEVLLDATKRHAVLMGLQPATEYIVNLVAVHGTVTSEPIVGSITTGIDPPKNITISNVTKDSLTVSWSSPVAPFDYYRVSYRPTQVGRLDSSVVPNTVTEFAITRLYPATEYEISLNSVRGREESERICTLVHTAMDSPMDLIATNITPTEALLQWKAPMGEVENYVIVLTHFAIAGETILVDGVSEEFQLVDLLPSTHYTVTMYATSGPLMSGTIATNFSTLLDPPDNLTASEVTRQSALISWQPPRAAIENYVLTYKSTDGSRKELIVDAEDTWIRLEGLSENTDYTVLLQAAQEATRSSLTSTVFTTGGRVFSHPQDCAQHLMNGDTLSGVYTIFLNGELSHKLQVYCDMTTDGGGWIVFQRRQNGQTDFFRKWADYRVGFGNLEDEFWLGLDNIHRITAQGRYELRVDMRDGQEAVFAYYDKFAVEDSRSLYKIRIGSYNGTAGDSLSYHQGRPFSTEDRDNDVAVTNCAMSYKGAWWYKNCHRTNLNGKYGESRHSQGINWYHWKGHEFSIPFVEMKMRPYIHRLTAGRKRRALKF
Take B1: the binding result is on record as “binds”.

B2: Dynamin-1 (protein, UniProt P39053 1-867)
chain: MGNRGMEDLIPLVNRLQDAFSAIGQNADLDLPQIAVVGGQSAGKSSVLENFVGRDFLPRGSGIVTRRPLVLQLVNSTTEYAEFLHCKGKKFTDFEEVRLEIEAETDRVTGTNKGISPVPINLRVYSPHVLNLTLVDLPGMTKVPVGDQPPDIEFQIRDMLMQFVTKENCLILAVSPANSDLANSDALKIAKEVDPQGQRTIGVITKLDLMDEGTDARDVLENKLLPLRRGYIGVVNRSQKDIDGKKDITAALAAERKFFLSHPSYRHLADRMGTPYLQKVLNQQLTNHIRDTLPGLRNKLQSQLLSIEKEVDEYKNFRPDDPARKTKALLQMVQQFAVDFEKRIEGSGDQIDTYELSGGARINRIFHERFPFELVKMEFDEKELRREISYAIKNIHGIRTGLFTPDMAFETIVKKQVKKIREPCLKCVDMVISELISTVRQCTKKLQQYPRLREEMERIVTTHIREREGRTKEQVMLLIDIELAYMNTNHEDFIGFANAQQRSNQMNKKKTSGNQDEILVIRKGWLTINNIGIMKGGSKEYWFVLTAENLSWYKDDEEKEKKYMLSVDNLKLRDVEKGFMSSKHIFALFNTEQRNVYKDYRQLELACETQEEVDSWKASFLRAGVYPERVGDKEKASETEENGSDSFMHSMDPQLERQVETIRNLVDSYMAIVNKTVRDLMPKTIMHLMINNTKEFIFSELLANLYSCGDQNTLMEESAEQAQRRDEMLRMYHALKEALSIIGDINTTTVSTPMPPPVDDSWLQVQSVPAGRRSPTSSPTPQRRAPAVPPARPGSRGPAPGPPPAGSALGGAPPVPSRPGASPDPFGPPPQVPSRPNRAPPGVPSLGAWRLNSPQGKHENRAGKARL
For B2, the binding entry is listed as “binds”.

B3: Ras-related protein Rab-3A (protein, UniProt P63011 1-220)
chain: MASATDSRYGQKESSDQNFDYMFKILIIGNSSVGKTSFLFRYADDSFTPAFVSTVGIDFKVKTIYRNDKRIKLQIWDTAGQERYRTITTAYYRGAMGFILMYDITNEESFNAVQDWSTQIKTYSWDNAQVLLVGNKCDMEDERVVSSERGRQLADHLGFEFFEASAKDNINVKQTFERLVDVICEKMSESLDTADPAVTGAKQGPQLTDQQAPPHQDCAC
Regarding B3, the binding entry is “binds”.

B4: Hemopexin (protein, UniProt Q91X72 24-460)
chain: SPLPTANGRVAEVENGTKPDSDVPEHCLDTWSFDAATMDHNGTMLFFKGEFVWRGHSGTRELISARWKNPITSVDAAFRGPDSVFLIKEDKVWVYPPEKKENGYPKLFQEEFPGIPYPPDAAVECHRGECQSEGVLFFQGNRKWFWDFATRTQKERSWSTVGNCTAALRWLERYYCFQGNKFLRFNPVTGEVPPRYPLDARDYFVSCPGRGHGRPRNGTAHGNSTHPMHSRCSPDPGLTALLSDHRGATYAFTGSHYWRLDSSRDGWHSWPIAHHWPQGPSTVDAAFSWDDKVYLIQGTQVYVFLTKGGNNLVSGYPKRLEKELGSPPGISLETIDAAFSCPGSSRLYVSSGRRLWWLDLKSGAQATWTEVSWPHEKVDGALCLDKSLGPNTCSSNGSSLYFIHGPNLYCYSSIDKLNAAKSLPQPQKVNSILGCSQ
As for B4, the binding entry is listed as “binds”.

B5: Protein S100-A13 (protein, UniProt P97352 1-98)
chain: MAAETLTELEAAIETVVSTFFTFAGREGRKGSLNINEFKELATQQLPHLLKDVGSLDEKMKTLDVNQDSELRFSEYWRLIGELAKEVRKEKALGIRKK
As to B5, the binding entry is reported as “binds”.

B6: Nck-associated protein 1 (protein, UniProt P28660 1-1128)
chain: MSRSVLQPSQQKLAEKLTILNDRGVGMLTRLYNIKKACGDPKAKPSYLIDKNLESAVKFIVRKFPAVETRNNNQQLAQLQKEKSEILKNLALYYFTFVDVMEFKDHVCDLLNTIDVCQVFFDITVNFDLTKNYLDLTVTYTTLMILLSRIEERKAIIGLYNYAHEMTHGASDREYPRLGQMIVDYENPLKKMMEEFVPHSKSLSDALISLQMVYPRRNLSADQWRNAQLLSLISAPSTMLNPAQSDTMPCEYLSLDAMEKWIIFGFILCHGMLNTEATALNLWKLALQSSSCLSLFRDEVFHIHKAAEDLFVNIRGYNKRINDIRECKEAAVSHAGSMHRERRKFLRSALKELATVLSDQPGLLGPKALFVFMALSFARDEIIWLLRHADNMPKKSADDFIDKHIAELIFYMEELRAHVRKYGPVMQRYYVQYLSGFDAVVLNELVQNLSVCPEDESIIMSSFVNTMTSLSVKQVEDGEVFDFRGMRLDWFRLQAYTSVSKASLSLADHRELGKMMNTIIFHTKMVDSLVEMLVETSDLSIFCFYSRAFEKMFQQCLELPSQSRYSIAFPLLCTHFMSCTHELCPEERHHIGDRSLSLCNMFLDEMAKQARNLITDICTEQCTLSDQLLPKHCAKTISQAVNKKSKKQTGKKGEPEREKPGVESMRKNRLVVTNLDKLHTALSELCFSINYVPNMAVWEHTFTPREYLTSHLEIRFTKSIVGMTMYNQATQEIAKPSELLTSVRAYMTVLQSIENYVQIDITRVFNNVLLQQTQHLDSHGEPTITSLYTNWYLETLLRQVSNGHIAYFPAMKAFVNLPTENELTFNAEEYSDISEMRSLSELLGPYGMKFLSESLMWHISSQVAELKKLVVENVDVLTQMRTSFDKPDQMAALFKRLSSVDSVLKRMTIIGVILSFRSLAQEALRDVLSYHIPFLVSSIEDFKDHIPRETDMKVAMNVYELSSAAGLPCEIDPALVVALSSQKSENISPEEEYKIACLLMVFVAVSLPTLASNVMSQYSPAIEGHCNNIHCLAKAINQIAAALFTIHKGSIEDRLKEFLALASSSLLKIGQETDKTTTRNRESVYLLLDMIVQESPFLTMDLLESCFPYVLLRNAYHAVYKQSVTSSA
Regarding B6, the binding entry is recorded as “binds”.
